Measured values published in US20100160556A1, “GLP-1 Fusion Peptides Conjugated to Polymer(s), Their Production and Use” (priority 2007, published 2010).
At least one peptide structure holds a part that was inferred or is arguable (an end, a ring closure or a residue). Some results were stated once for a whole list of compounds, not compound by compound. Ends that are not written are not given here.

Legend:
[1] = system: diabetic C57BL/KsJ@Rj-db (db/db) mice; test: Dose-efficacy study in diabetic mice; format: in vivo; conditions: for ED50 (plasma glucose): single s.c. dose, 1 h measurements, percentage decrease of blood glucose; for fall in plasma glucose @1 h / fall in plasma glucose @4 h: single s.c. injection of 1.1-3.0 nmol peptide, versus control; for better in vivo bioactivity, deduced from the ED50 values: versus GLP-1
Method: A sixth group was treated with saline only. 7 animals were treated per group. Blood glucose was determined from tail bleeds directly before, 1 hour and 4 hours after injection.
The results are shown in dose-response curves according to FIG. 12 ([…] (GLP-1), FIG. 12B (CM1), FIG. 12C (CM3) and FIG. 12D (CM3-ANA01)). For every test substance a graph was prepared with the percentage difference of the blood glucose in relation to the start value for the different concentrations. […] Both models are sigmoidal fit models suitable for dose response evaluation. For every peptide the plasma glucose ED50 values (single s.c. dose in μg/mouse) have been determined from the percentage decrease of blood glucose.
The fall in plasma glucose and the corresponding significance levels are given for the time period 1 hour (@1 h) and 4 hours (@4 h) after peptide injection. Differences have been observed in the long-term efficacy of the peptides.

[2] = system: C57BL/KsJ@Rj-db (db/db) mice; test: Long-term treatment of db/db mice; format: in vivo
Method: Peptides or vehicle will be given once daily (group A-D) between 2°°-3°° p m. subcutaneously in the skin fold of the back. The regimen was continued for 18 weeks. From week 12 to 18 treatment was done twice a day in 6 of 12 animals per group.
Various parameters of the mice were investigated, i.e. health status (1), body weight (2), food consumption (3), blood glucose (4), glucose tolerance test (5), insulin data (6), glycosylated hemoglobin (7), pathology (8), and restimulation of T cells (9). • Health status (1) was good in all groups, no side effects of the treatment have been seen. • Body weight (2) was lower in all treated groups after 18 weeks of treatment (FIG. 13). […] The mean values of 12 animals per group are plotted. […] The relative body weight increase of 12 animals per group after a treatment of 122 days is plotted. […] Non-fasted blood glucose level (1 hour after peptide injection) is shown in FIG. 15A, i.e. the effect of a treatment with saline (A), CM1 (B), CM3-ANA01 (C) or exendin (D) on the non-fasted blood glucose levels. Blood glucose was measured from a tail bleed 1 hour after s.c. injection of saline (A) or the peptides CM1 (B), CM3-ANA01 (C) or exendin (D) in a concentration of 24 nmol/kg. Compared to control non fasted blood glucose level 1h after s.c. peptide injection is reduced to 55% in group B, 51% in group C and 60% in group D (FIG. 15B). […] Blood glucose was measured from a tail bleed after a 12-hour overnight fast 18 hours after s.c. injection of the test substances. Fasted blood glucose level 18h after peptide injection is reduced in the CM1 and CM3-ANA01 group. • An i.p. glucose tolerance test (5) (IPGTT) was conducted after 8 weeks of treatment on mice of the groups A-D. The basal blood glucose value (0 min) of 12 hour fasted animals has been determined by tail bleed followed by an s.c. injection of the test substance and an i.p. injection of 20% glucose solution (1g glucose per kg). Blood glucose has been further on determined 15, 30, 45, 60, 90 and 120 minutes after glucose injection. […] Relative blood glucose levels during an i.p. glucose tolerance test (IPGTT) after 8 weeks of treatment with saline (A), CM1 (B), CM3-ANA01 (C) or exendin (D) normalized on the starting blood glucose level (100%). • Insulin levels (6) were determined from mice after a 12 hour overnight fastening period. […] The serum was analysed for insulin with the Insulin Mouse Ultrasensitive ELISA (Cat.# EIA-3440, DRG). […] Whole blood was collected from the retro-orbital sinus and analyzed with the Enzymatic HbA1c Test Kit (#DZ121A, Diazyme) to determine the glycosylated hemoglobin levels. […]

Molecule | ED50 (plasma glucose) [1] | fall in plasma glucose @1 h [1] | fall in plasma glucose @4 h [1] | better in vivo bioactivity, deduced from the ED50 values [1] | food consumption ([2]; 24 nmol/kg s.c., 122 day treatment period, compared to the control) | relative body weight increase ([2]; 24 nmol/kg s.c., after a treatment of 122 days) | fasted blood glucose level ([2]; 12-hour overnight fast, 18h after peptide injection) | non fasted blood glucose level compared to control ([2]; 1h after s.c. peptide injection, 24 nmol/kg) | decrease of the blood glucose levels after 4 hours ([1]; long-term efficacy, 4 hours after injection)
CC[C@H](C)[C@H](NC(=O)[C@H](Cc1ccccc1)NC(=O)[C@H](CCC(=O)O)NC(=O)[C@H](CCCCN)NC(=O)[C@H](C)NC(=O)[C@H](C)NC(=O)[C@H](CCC(N)=O)NC(=O)CNC(=O)[C@H](CCC(=O)O)NC(=O)[C@H](CC(C)C)NC(=O)[C@H](Cc1ccc(O)cc1)NC(=O)[C@H](CO)NC(=O)[C@H](CO)NC(=O)[C@@H](NC(=O)[C@H](CC(=O)O)NC(=O)[C@H](CO)NC(=O)[C@@H](NC(=O)[C@H](Cc1ccccc1)NC(=O)[C@@H](NC(=O)CNC(=O)[C@H](CCC(=O)O)NC(=O)[C@H](C)NC(=O)[C@@H](N)Cc1c[nH]cn1)[C@@H](C)O)[C@@H](C)O)C(C)C)C(=O)N[C@@H](C)C(=O)N[C@@H](Cc1c[nH]c2ccccc12)C(=O)N[C@@H](CC(C)C)C(=O)N[C@H](C(=O)N[C@@H](CCCCN)C(=O)NCC(=O)N[C@@H](CCCNC(=N)N)C(=O)NCC(=O)O)C(C)C [GLP-1(7-37), reference compound] | 12.76 μg/mouse | 15% ± 24% | 0% | – | – | – | – | – | –
GLP-1(7-37)—IP2-RR-GLP1(7-37) [CM1] | – | – | – | more than 20 fold | – | – | – | – | –
HAEGTFTSDVSSYLEGQAAKEFIAWLVKGRGAADFPEEVAIAEELG [CM3-ANA01] | 0.55 μg/mouse | 62% ± 12% | 18% ± 11% | more than 20 fold | significantly lower | significantly lower | reduced | 51% | –
HAEGTFTSDVSSYLEGQAAKEFIAWLVKGRGRRDFPEEVAIAEELG [CM3] | 0.25 μg/mouse | 46% ± 6% | 21% ± 10% | more than 20 fold | – | – | – | – | significant decrease
